For 107 sequences, z-score results are on record in PubChem BioAssay AID1508600 (Functional Genomics Laboratory (NCATS/FGL), 2020).

Screen size: about 53,000 sequences; about 3,700 (7%) were called active.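 How the source made its calls: active means gene knockdowns whose robust z-score for IL-1 alpha signal is at least 2 or at most -2, so actives lie on both sides; inactive means the rest.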 This is one part of the list.

The assay can be described thus: Components of the Cytosolic LPS Sensing Pathway: Gene Identification via Genome-wide siRNA Screen.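 Further: robust z of the log signal after scaling to non-targeting control siRNA wells of the plate.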 As to conditions: RAW264.7 macrophages, IL-1a HTRF, actives lie on both sides, screened at 100 nM (by protocol), cells primed 5 h with Pam3CSK4 first. In outline: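 Knockdown: 100 nM siRNA, 48h, RAW264.7. Stimulation: Pam3CSK4 5 h, then LipidA via TransIT-TKO 24 h. Output: supernatant IL-1a HTRF, negative-control-normalized, log robust z-score; viability by CellTiter-Glo.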
On the technique in general: TR-FRET usually uses a lanthanide donor and a delayed reading to cut background.
Consider GCGCAAAGUCGAAUCCAGUTT against Vgll1, for which the z-score was inactive: -0.156. GCGAUUACCUGGAUAUCGGTT against Acvrl1: the z-score was inactive: -1.25. To GCCUUAAUGAACCAGCACCTT against Tek belongs inactive: 0.561. Turning to GGGCCAUGGAUAAGAAAAATT against Psmc5, the z-score is active: -2.61.

Take GGGCACAGGCACUAAAAUGTT against Sbk1: the z-score was inactive: 0.101. The figure for CGACGAGAAAAUCACUCAGTT against Nkx6-1 is inactive: -0.321. Consider GGAAAUCACCAACUUGGCCTT against Pou3f3, for which the z-score is inactive: -0.0208. The figure for CGUGAUGUGAACGGAGGUATT against Six2 is inactive: 0.639; for GCAGAGCUAACCUCAUUUGTT against Gmeb2 it is inactive: -0.148; for AUCGUAUUGCUCUUUUACGTT against Pdp2 it is inactive: -1.52. To GGUUCUCCAGUGGUCUGACTT against Rab29 belongs inactive: -0.44. For CCCAGGAACUAUGAGUUGUTT against Rnf31, the z-score was inactive: -1.87.

On to GGGACAUUUCUAUUAGAAUTT against Snx24, for which the z-score was inactive: -0.95. To CCUAAUAAGCUUUAAAGGATT against Mrm1 belongs inactive: 0.171. The figure for GCUCCUACCCAAGGUUUAATT against Arl9 is inactive: 0.6.

GGUACUUUCGCAUCCUGCATT against Rnaseh2b: the z-score is inactive: -0.397.

With GGCCUUUAGUGCCAUUGUUTT against Rhno1, the z-score was inactive: -0.423.

As to GGCUGAAGGCAAAUCAAGATT against Cuzd1, the z-score is inactive: -0.224.

For the sequence GCCGUUCUCGGGUAAUGUUTT against Cpeb2, the z-score is inactive: -1.49. Turning to GGCCCUGAGAGAAACAAGATT against Ly9, the z-score was inactive: -1.62. On to GCCAGGCUUACAAUAGUCCTT against Tpsg1, for which the z-score was inactive: -1.84.

Turning to GGCAAGAAAGAAAGGCCAATT against Rps23, the z-score is inactive: 0.00872.

With GUGAUGAUUGAGAGAAUGATT against Pla2g2e, the z-score was inactive: -1.04. CGAGACACACCUAAAUAUGTT against Nop58: the z-score was inactive: -0.608. With CCUAUUCCAACAAUUGGUUTT against Trim23, the z-score was inactive: -0.0743. As for GGAAGUGGCUGUUGCUUCUTT against Lcn8, the z-score is inactive: -0.111. GGACUACAUAAGGAAGGUUTT against Ccdc130: the z-score is inactive: 1.64.

Consider GGCCUCCUUUGAUCAUGCGTT against Zfp219, for which the z-score is inactive: 1.78. To GGACCAAGGAGCAUUGAAATT against Fkbp7 belongs inactive: 1.06; to GGUAGAAUGGUUUUGAAGATT against Rnf130, inactive: -0.0426. As to GGUGUUCACACUCUUUUCUTT against Laptm4b, the z-score is inactive: 0.362. The figure for GCUCUCAUACACGGUGGAATT against Ros1 is inactive: -0.272; for GAAGCUUUGGUGGUACUAATT against Krtap19-2 it is inactive: 0.174; for GGUGGACACUCUUGACCUATT against Zfp235 it is inactive: -0.418.

Consider GGAAUCACUCAAAGCUUAATT against Dst, for which the z-score was inactive: -1.11. To GGCACAAGUCUCCUUGUAATT against Vamp7 belongs inactive: -0.858; to GGAAGAGAAAGACCUGAGATT against Glra1, inactive: -0.0808. As to CCUGGACGAGUGCUGAAGATT against Cr1l, the z-score was inactive: 0.861. To GGCUUUAAUUGUGAGAUGCTT against Il1rl1 belongs inactive: -1.6; to GGUACAGAUUGUAAACAUUTT against Crebrf, inactive: 0.872. On to GGAUUGGCUCAAAGAUAUATT against Prss16, for which the z-score is inactive: 0.221. The figure for GGAAAAUCCAUCUGGCCGATT against Myoc is inactive: 0.405; for GCACACAAAACAUCUAACCTT against Raver2 it is inactive: 0.219; for GCUUACCAGAUUGUAUGUATT against Mrgpra1 it is inactive: 0.533. The figure for CGAACAGGUAAAUGUGAGCTT against Spag16 is inactive: 0.893. With GGGUUUUUUUAGAGAGAUUTT against Susd3, the z-score is active: -2.11.

On to GGGUAUAGAGUCAAUCUGATT against Gfm2, for which the z-score is inactive: -0.381. As to GGAAGGUUUCAUCUUCAAATT against Hsf2, the z-score is inactive: 0.719. For CCUGAGAGUAACUCUGAGGTT against Mon1b, the z-score is inactive: 1.32. To GGGAAGCUUCUGUGAGUUUTT against Stag3 belongs inactive: 1.81; to CCGACUUGGAUAUUGCAUATT against Saraf, inactive: -1.14. To GGCAUCUAGGAGAACCUCATT against Insig2 belongs inactive: -1.01; to GGAUUCAGUGGAAAUCUUUTT against Gjc2, inactive: -0.293.

Consider GGGCUACUCAAUGUCUUAUTT against Adgrd1, for which the z-score was inactive: 1.11. GCAUUCGGUACUUAUUUGATT against Ugt2b35: the z-score is inactive: -0.317. Regarding GCUACUCGCGUUUAAUUUUTT against Slc9a9, the z-score was inactive: -0.238. On to GCACUAGCUCUUCACCUCUTT against Glt1d1, for which the z-score is inactive: -0.109. To GGAGGUCGAGCUAUGUUUATT against Psmd11 belongs inactive: -1.95; to GGUCUUCUGAAGAUGGCGUTT against Pja2, inactive: 1.39. To CGCCAAUGUGAUUAAACUATT against Mak belongs active: 2.01. In the case of GGGCUUUAUGCAGACCUACTT against Apoc4, the z-score is inactive: -1.8. To GCCCUAUAACAACCUCAAGTT against Cdk10 belongs inactive: -0.695; to GCAUGAGACUGUGAACCAGTT against Efnb1, inactive: -1.72; to CGUGGUCGUGAGAUGUUUGTT against Chid1, inactive: 1.35.

On to “GGAGCAAGCACCUAUACUCTT against 1700029M20Rik”, for which the z-score was inactive: -0.117. The figure for GCCUGCCUACGAGAUCAACTT against Mgp is inactive: -0.0804. Consider GGAGAACAAAGUAUUGGUGTT against Cacna1f, for which the z-score is inactive: 0.388. For CCCUGUUUGGCAAUAACAATT against Nup98, the z-score is inactive: -1.61. The figure for CCGUGUGCAUUUACGGGCATT against Cndp2 is inactive: 0.318; for GGUUUUUGAUAAUUGCCAUTT against Gcsh it is inactive: -1.98; for GGCUGUGUUCUAAUCAGUATT against Gad2 it is inactive: 0.119. GGCCAAAUUUAUAAUGAACTT against Rsl24d1: the z-score is inactive: 1.16.

In the case of GCCAACAUGUAUCAAAGCUTT against Rpgr, the z-score is inactive: -1.11. Regarding GGACUCACAGAAAUUUCCATT against Slc36a1, the z-score was inactive: -1.53. The figure for GUUUCUUCCAAACUCCAUCTT against Olfr487 is inactive: 0.622; for GGCGGAUCUCUUGAGUGUUTT against Glyctk it is inactive: 0.213. To GGGUCAUUGGUAGCAACGATT against Oas1g belongs active: -2.9; to GGAACCUAUCAUGAUGAAATT against Pter, inactive: -0.607; to CCAGUGAUCAGUUUUAACGTT against Adamts20, inactive: 0.184. Regarding GGCUGGAGUAGAAAAGGGATT against Lamtor2, the z-score was inactive: -0.909.

As for GGCAAUGCUGCAUCUCCUATT against Fbln2, the z-score is inactive: -0.151. For the sequence GGUUCUACAUUGGCGAGAUTT against Cdc42bpb, the z-score is inactive: -0.794.

CGUACAACCUCAAGGUUCUTT against Lag3: the z-score was inactive: -1.68. For the sequence CCAAAGAAGGACUUAGAUUTT against Ddx50, the z-score is inactive: -0.462.

As to GCUCAGAUAUGAGCAAGCUTT against Fadd, the z-score was inactive: 0.0462. For the sequence GGAGACUCCAUACCAGUGUTT against Zfp329, the z-score was inactive: 1.78.

In the case of CGUAACUUUUUGCAUUUGATT against Trpa1, the z-score was inactive: 0.116.

In the case of GGGUUGCUUCAACUUUUAGTT against Mpp1, the z-score was inactive: -0.346. Consider GGUAAUGGAAAUGAACAAATT against Zfp353-ps, for which the z-score was inactive: 0.381. The figure for GGGAAUUACAGCACACAAUTT against Treml4 is inactive: -0.21; for CGCAGUACAUACAACUGUGTT against Art1 it is inactive: 1.33.

Turning to CGUGGUGGUUGUUCGAGUATT against Rimkla, the z-score was inactive: 0.737. As to GCAUUAGAACAAAGGAUGCTT against Rps19, the z-score was inactive: 0.278.

In the case of GGAUUGUGGUCCAUGAAUATT against Tmprss7, the z-score was inactive: -1.65.

GGGAUACCAUGGGAAUAGUTT against Vps52: the z-score was inactive: 0.908. The figure for GUACCACGGAUCUCUUCAUTT against Galr3 is inactive: 0.264; for GCGAGUUUUUGGAUGGUAGTT against Slc4a3 it is inactive: 0.243. Turning to GGAGAGAAGUGCUACAUCATT against Cnmd, the z-score is inactive: 1.03. Regarding CCAAUUAGCCCAAAGAAACTT against Sec14l2, the z-score is inactive: 0.609. Take GGCUAACCGUAUCAGUCAUTT against Podnl1: the z-score was inactive: -1.23. For the sequence CCCAACACAAGGUGUGAGGTT against Ift22, the z-score was inactive: -1.1. As to GCUGGAUGGCACUUAUGACTT against Slc45a3, the z-score was inactive: -0.414. Turning to GGUGUACGAGAUCCAGGACTT against Eif3l, the z-score is inactive: -0.699.

Regarding GCCUGUUAAUAUGCUGUAATT against Gpr83, the z-score is inactive: -0.0705. Take GUUCCAUAUGGAGCUUGUCTT against Olfr401: the z-score is inactive: 0.401.

For GGUCACAAUUGCGCUAUGATT against Ric8b, the z-score was inactive: -0.752. To GGAGAAACUCUAGAAUUGATT against Mdga2 belongs inactive: -1.36.
